# Reference: PubChem BioAssay AID493014 (National Center for Advancing Translational Sciences (NCATS), 2011)
# “And” between values parts separate entries of the source, which are not always exact repeats. Equal entries are not always repeated. The list shows a part of the results. The main result of the screen is listed elsewhere. These columns were measured beside it and carry no call. Compounds called inactive in the main read-out are mostly missing here. Potencies come from curve fits of mixed quality, noted in brackets.
# Experiment: qHTS Assay to Find Inhibitors of Chronic Active B-Cell Receptor Signaling
# Settings: ABC-DLBCL IkBa-CBG/CBR reporter, luminescence ratio (green luciferase fused to IkBa over red control in TMD8 lymphoma cells), 4 h
# Procedure, shortened: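 Cell line TMD8 (human ABC DLBCL), stably expressing tet-inducible CBG68-IkBa fusion and CBR; IMDM/0.5% FBS; cpd up to 46 uM; dox induction, 4 h, 37C/5% CO2; dual luminescence; green/red ratio; MG132 control.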
# [1] = measured here: CBR red luminescence, cell number
# [2] = measured here: IkBa-CBG green luminescence
structure (smiles),measurement,setting,value
Cc1cc(NC(=O)c2ccc(F)cc2)n(-c2ccccn2)n1,AC50,[1],"35.5 µM [falling, single point]"
Cc1cccc(NC(=O)CN2C(=O)S/C(=C\c3ccc(O)c([N+](=O)[O-])c3)C2=O)c1,AC50,[1],"35.5 µM [falling, single point]"
COc1ccc(Nc2nc(=O)c3cc([N+](=O)[O-])ccc3s2)cc1,AC50,[1],"35.5 µM [falling, single point]"
Cc1ccc(C(=O)NC(=S)NNC(=O)COc2ccccc2C)cc1,AC50,[1],"12.6 µM [rising, partial curve, poor fit]"
Cc1cccc(NC2=C(NCCO)C(=O)c3ccccc3C2=O)c1,AC50,[1],"0.206 µM [rising, partial curve, poor fit]"
CCOC(=O)C1C(C(=O)OC)=C(c2ccc(OC)cc2)c2ccccc2N1S(=O)(=O)C(F)(F)F (stereo not given),AC50,[1],"6.51 µM [rising, single point]"
same,AC50,[2],"1.84 µM [falling, partial curve]"
CC12CN3CCN(CC(C3)/C1=N\NC(=O)c1ccccc1N)C2,AC50,[1],"7.08 µM [falling, partial curve]"
O=C(/C=C/c1ccc(O)c(O)c1)NC(=O)c1ccccc1O,AC50,[1],"3.55 µM [falling, full curve]"
CCNc1nc(N)nc(Oc2ccc(OCCOc3ccc(Cl)cc3Cl)nn2)n1,AC50,[1],"1.84 µM [rising, single point]"
O=C(CSc1nnc(-c2ccncc2)n1Cc1ccccc1)Nc1nccs1,AC50,[1],"7.94 µM [falling, partial curve, poor fit]"
CC(C)(C)OC(=O)NCCCCCNC(=O)c1nc[nH]c1C(=O)NCC(=O)OCc1ccccc1,AC50,[1],"14.6 µM [falling, single point]"
C#CCOCCOCCOCCNc1nc(N2CCN(C(=O)CCCCCCCCCCNC(=O)[C@H]([C@@H](C)CC)n3cc(CCCCN=C(N)N)nn3)CC2)nc(N2CCN(C(=O)CCCCCCCCCCNC(=O)[C@H]([C@@H](C)CC)n3cc(CCCCN=C(N)N)nn3)CC2)n1,AC50,[1],"11.6 µM [rising, partial curve, poor fit]"
COc1cc(/C=C/C(=O)O)ccc1OS(=O)(=O)c1c(C)c(C)cc(C)c1C,AC50,[1],"32.6 µM [rising, single point]"
O=C(NCc1ccc(Cl)cc1)c1cc([N+](=O)[O-])ccc1Cl,AC50,[1],"35.5 µM [rising, single point]"
O=C(COc1cccnc1[N+](=O)[O-])Nc1ccc(F)cc1,AC50,[1],"20.6 µM [falling, partial curve, poor fit]"
COCc1nc2ccccc2n1Cc1c(F)cccc1Cl,AC50,[1],"1.26 µM [rising, full curve, poor fit]"
Cc1ccc(S(=O)(=O)NCCCNS(=O)(=O)c2ccc(C)cc2)cc1,AC50,[1],"29.1 µM [rising, partial curve, poor fit]"
O=C(O)CCN1C(=O)C(=C2CCCCCC2)SC1=S,AC50,[1],"11.2 µM [falling, partial curve]"
COC(=O)[C@H](CCSC)NC(=O)Cn1ccc(NC(=O)OCc2ccccc2)nc1=O,AC50,[1],"11.6 µM [rising, single point]"
O=C1OC[C@H]2CCCN2C(=O)[C@@H](CC(=O)N(CCO)Cc2ccccc2)C/C=C\C[C@@H]1Cc1ccc(F)cc1,AC50,[1],"0.103 µM [rising, full curve, poor fit]"
Cc1coc2cc3oc(=O)c(CCC(=O)O)c(C)c3cc12,AC50,[1],"11.2 µM [falling, partial curve, poor fit]"
O=[N+]([O-])c1cccc(-n2nnnc2CNCc2ccccc2)c1,AC50,[1],"0.112 µM [rising, full curve, poor fit]"
Cc1cc(=O)[nH]c(SCCc2ccccc2)n1,AC50,[1],"11.2 µM [falling, single point]"
N#Cc1ccc(COC(=O)c2cnc(Cl)c(Cl)c2)cc1,AC50,[1],"3.55 µM [falling, single point]"
COc1ccccc1N(CC(=O)NC(C)(C)C)C(=O)Cn1nnc(-c2ccc(C)o2)n1,AC50,[1],"35.5 µM [falling, partial curve, poor fit]"
COC(=O)C1=C(C)N(Cc2ccccc2)C(=NCc2cc(OC)c(OC)c(OC)c2)N[C@H]1CCc1ccccc1,AC50,[1],"22.4 µM [falling, partial curve] and 8.2 µM [falling, partial curve, poor fit]"
CCC(=O)n1nc(-c2ccccc2)nc1NCc1ccccc1,AC50,[1],"16.4 µM [falling, single point]"
Cc1ccc(C(=O)O/N=C(\N)c2ccc(C(F)(F)F)cn2)cc1,AC50,[1],"22.4 µM [rising, partial curve, poor fit]"
Cc1cccc(C(=O)NC(=S)Nc2cccc3nc(C)ccc23)c1,AC50,[1],"35.5 µM [falling, single point]"
O=C(CN(CC1CCCO1)C(=O)c1nsc(Cl)c1Cl)NC1CCCC1 (stereo not given),AC50,[1],"6.31 µM [rising, single point]"
COc1ccc(C(=O)NC(=S)Nc2ccccc2N2CCCCC2)cc1[N+](=O)[O-],AC50,[1],"1.3 µM [rising, full curve, poor fit]"
COc1cc(Cn2c(-c3nonc3N)nc3ccccc32)ccc1C,AC50,[1],"0.291 µM [rising, full curve, poor fit]"
O=C(CNc1ccccc1)N/N=C/c1ccc([N+](=O)[O-])cc1,AC50,[1],"4.11 µM [rising, full curve, poor fit]"
O=C(COC(=O)c1c(Cl)cccc1Cl)Nc1ccccc1Br,AC50,[1],"1.16 µM [rising, partial curve]"
COc1ccc(-c2cc3ncccc3cn2)cc1,AC50,[1],"20.6 µM [falling, single point]"
CC(C)(C)n1nc(C2CC2)cc1NC(=O)Nc1ccc(Cl)cc1,AC50,[1],"5.01 µM [rising, full curve, poor fit]"
Nc1ccccc1SCC(=O)Nc1nccs1,AC50,[1],"35.5 µM [falling, single point]"
Cc1ccc(NC(=O)C2CCCO2)cc1[N+](=O)[O-] (stereo not given),AC50,[1],"20.6 µM [rising, single point]"
same,AC50,[2],"16.4 µM [falling, single point]"

# Part of the list above, with bars between the fields.
structure (smiles) | measurement | setting | value
O=C(O)CCN1C(=O)C(=C2CCCCCC2)SC1=S | AC50 | [1] | 11.2 µM [falling, partial curve]
COC(=O)[C@H](CCSC)NC(=O)Cn1ccc(NC(=O)OCc2ccccc2)nc1=O | AC50 | [1] | 11.6 µM [rising, single point]
O=C1OC[C@H]2CCCN2C(=O)[C@@H](CC(=O)N(CCO)Cc2ccccc2)C/C=C\C[C@@H]1Cc1ccc(F)cc1 | AC50 | [1] | 0.103 µM [rising, full curve, poor fit]
